# In all, about 330,000 compounds went through this assay and about 7,700 (2.3%) were called active. This list was built around the results that the source calls inconclusive (neither active nor inactive); the mix of calls is not that of the screen. Calls come from the whole dose curve; as a rule, active = well fitted inhibition curve with a large enough effect; inconclusive = small, poorly fitted or top-dose-only effect, or effect the other way; inactive = flat fitted curve, though single readings scatter. A potency beside an inconclusive call is a rough fit, not a confirmed value.
# Assay: qHTS screen for small molecules that inhibit ELG1-dependent DNA repair in human embryonic kidney (HEK293T) cells expressing luciferase-tagged ELG1; note: nearly all actives have a fitted effect of over 55% in size
# Conditions: HEK293T ELG1-luciferase reporter, luminescence, 16 h, DNA damage induced by 5-fluorouridine; activity change, negative = inhibition: at 46.1 µM (top of the series)
# Procedure, shortened: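 5-Fluorouridine DNA damage + compound/DMSO, 2,000 cells/well, 16 h, 37 °C/5% CO2. ONE-Glo, 30 min RT, luminescence. Readout = decrease in reporter signal.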
# % is set by controls: 0 for no effect and ±100 for the full control effect; potency is the fitted concentration of half-maximal effect.
Structure (SMILES),Potency,"activity change, negative = inhibition"
COc1ccc(NC(=O)CSc2ccccc2)c([N+](=O)[O-])c1,"inconclusive: 4.61 µM [activator, single point]",–
CCOc1ccc(C(=O)NCC(=O)OCc2csc(-c3ccccc3)n2)cc1,"inconclusive: 20.6 µM [activator, single point]",–
CCn1nc(C)c(NS(=O)(=O)c2ccc(C)cc2)c1C,"inconclusive: 2.06 µM [inhibitor, full curve]",–
O=C(CSc1nnc2ccccn12)Nc1ccc2c(c1)OCO2,"inconclusive: 18.3 µM [activator, single point]",–
COc1ccc(CN(C)CC(=O)N2CCc3ccccc3C2)cc1,–,inactive: 3.82%
COc1ccc(N2C(=O)C(Cl)=C(Nc3ccccc3O)C2=O)cc1,"inconclusive: 8.2 µM [activator, partial curve]",–
O=C1c2ccccc2C(O)N1c1cccnc1 (stereo not given),–,inactive: 11.8%
Cc1ccc(-n2nc(CN3CCOCC3)c(-c3ccccc3)c2N)cc1Cl,active: 1.64 µM,–
S=C(NCc1ccco1)N1CCN(c2ccc(Cl)cc2)CC1,"inconclusive: 20.6 µM [inhibitor, partial curve, poor fit]",–
CCCCn1c(/N=C/c2ccc(N(C)C)cc2)nc2ccccc21,–,inactive: -3.13%
CCCCN1CC(COc2ccccc2)OC1=O (stereo not given),"inconclusive: 23.1 µM [activator, single point]",–
C=C[C@@H]1c2cccc(C)c2N(S(=O)(=O)c2ccc(C)cc2)[C@H](c2ccc(OC(C)=O)cc2)C1(C#N)C#N,–,inactive: -4.96%
O=C(Cn1ncc2c1-c1ccccc1OC2)N1CCN(Cc2ccccc2)CC1,"inconclusive: 23.1 µM [inhibitor, partial curve, poor fit]",–
COc1cccc(OC)c1C(=O)Oc1ccc2c(c1)O/C(=C\c1ccncc1)C2=O,active: 23.1 µM,–
Cc1c(Br)c(-c2n[nH]c(=S)n2Cc2ccco2)nn1C,–,inactive: -3.79%
Cc1cccc(C)c1NC(=O)C1CCCN1S(=O)(=O)c1ccc2c(c1)n(C)c(=O)c(=O)n2C (stereo not given),–,inactive: 2.15%
COc1cc(NC(=O)C2=C(N3CCOCC3)/C(=C\c3ccc(N(C)C)cc3)CCC2)cc(OC)c1OC,"inconclusive: 7.31 µM [inhibitor, partial curve]",–
Cc1ccc(C(=O)NCCSC2CCCCC2)cc1S(=O)(=O)Nc1ccccc1,"inconclusive: 25.9 µM [inhibitor, single point]",–
O=C(OCC(=O)C12CC3CC(CC(C3)C1)C2)c1ccc(O)cc1,"inconclusive: 29.1 µM [activator, single point]",–
O=C(NCCc1c[nH]c2ccccc12)c1ccc(F)cc1F,"inconclusive: 13 µM [activator, partial curve]",–

# Individual results from above.
# CCCCn1c(/N=C/c2ccc(N(C)C)cc2)nc2ccccc21 – activity change, negative = inhibition: inactive: -3.13%
# Cc1ccc(C(=O)NCCSC2CCCCC2)cc1S(=O)(=O)Nc1ccccc1 – Potency: inconclusive: 25.9 µM [inhibitor, single point]
